# Results reported in US20220218852A1, “NOVEL RADIOLABELLED CXCR4-TARGETING COMPOUNDS FOR DIAGNOSIS AND THERAPY” (PROVINCIAL HEALTH SERVICES AUTHORITY, priority 2019, published 2022).
# At least one peptide structure holds a part that was inferred or is arguable (an end, a ring closure or a residue). Positions of bridges follow the written chain, without caps; N, C: chain ends. Non-standard residues stand in square brackets, D forms with d. Residues, ends and D or L forms follow the SMILES beside them. Groups on a side chain read outwards from the residue. *: point of attachment. DOTA = O=C(O)CN1CCN(CC(=O)O)CCN(CC(=O)*)CCN(CC(=O)O)CC1; 2Nal = N[C@@H](Cc1ccc2ccccc2c1)C(=O)O; Lys(iPr) = CC(C)NCCCC[C@H](N)C(=O)O
# How the values were obtained:
# CHO:CXCR4 cells = assay: Internalization in CHO:CXCR4 cells; format: cell-based
# CHO:WT cells = assay: Internalization in CHO:WT cells; format: cell-based
smiles,measurement,setting,value
"CC(C)NCCCC[C@@H]1NC(=O)[C@H](Cc2ccc(O)cc2)NC(=O)[C@H](Cc2ccccc2)NC(=O)CC[C@H](C(=O)N[C@@H](CCCCNC(C)C)C(=O)N[C@@H](CCCCNC(=O)[C@H](CCC(=O)O)NC(=O)[C@H](CCC(=O)O)NC(=O)[C@H](CCC(=O)O)NC(=O)CN2CCN(CC(=O)O)CCN(CC(=O)O)CCN(CC(=O)O)CC2)C(N)=O)NC(=O)CNC(=O)[C@H](Cc2ccc3ccccc3c2)NC(=O)[C@@H](CCCNC(=N)N)NC1=O [[^68Ga]Ga-BL02, metal not drawn] (FY[Lys(iPr)][dR][2Nal]G[dE][Lys(iPr)]K([Glu-Glu-Glu-DOTA])-NH2; lactam N-7)",% Internalized,CHO:CXCR4 cells; Blocking No,52.4 ± 1.2%
same,% Internalized,CHO:CXCR4 cells; Blocking Yes (1 μM LY2510924),11.6 ± 8.8%
same,% Internalized,CHO:WT cells; Blocking No,13.3 ± 6.4%
same,% Internalized,CHO:WT cells; Blocking Yes (1 μM LY2510924),9.2 ± 7.3%
